Values from PubChem BioAssay AID504784 (Drosophila RNAi Screening Center, 2011).

Aim: 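Genome-wide knock-down for genes giving too much or too little stored lipid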 (primary screen)
Cell system: Drosophila Kc167 embryonic cells
Reagents: long dsRNA against Drosophila genes, about 250 ng dsRNA per well
Timing: 4 days
Treatment: cells fed 400 µM oleic acid bound to BSA
Measurement: 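Microscope images give a droplet-to-nucleus area ratio, taken as log and converted to a screen-wide B-score; higher values mean greater lipid storage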
Reading the numbers: droplet/nuclear area B-score: higher = more stored lipid (overstorage)
The deposit covers about 17,000 reagents; shown is a random part of those with a known target gene and a result. 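Each column is one replicate's B-score; the combined score over replicates was not deposited, so single values may mislead.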 A plus sign joins genes that one reagent is predicted to hit.

no.	target gene	DRSC id	droplet/nuclear area B-score, replicate 1	droplet/nuclear area B-score, replicate 2	droplet/nuclear area B-score, replicate 3
1	CG31054 (retired record)	DRSC22134	-0.0558	0.429	
2	CG17343	DRSC02606	-0.765	-0.737	
3	CG17343	DRSC22807	0.145	0.173	
4	obst-H (obstructor-H)	DRSC10935	-0.56	-0.505	
5	obst-H (obstructor-H)	DRSC10940	-0.479	-2.11	
6	CG18367	DRSC06545	1.25	0.297	-1.52
7	Ku80	DRSC02699	0.494	-1.03	
8	ZnT49B (Zinc transporter 49B)	DRSC07225	-0.901	-1.64	
9	CG32813	DRSC17948	-0.468	-0.135	
10	zetaTry (zetaTrypsin)	DRSC07720	0.0586	2.49	
11	Flad1 (Flavin adenine dinucleotide synthetase 1)	DRSC19898	-0.0452	0.0265	-0.497
12	CG14120	DRSC10124	0.826	0.677	
13	Dad1 (Defender against apoptotic cell death 1)	DRSC02263	-0.612	-0.224	
14	brv1 (brivido-1)	DRSC11076	0.329	-0.0492	
15	CG14777	DRSC18563	-0.0129	-0.693	
16	CG4951	DRSC15682	1.07	0.344	
17	CG10898	DRSC14279	7.49	-0.0364	
18	Kua	DRSC02100	-0.417		
19	CG42813 + CG42814	DRSC15939	-0.791	5.96	
20	CG42813 + CG42814	DRSC15940	-2.11	-0.66	
21	CG6664	DRSC10690	0.673	-1	1.26
22	CG14711 + Zaf1	DRSC14934	0.22	3.25	
23	Ag5r (Antigen 5-related)	DRSC19327	0.85	0.216	-0.52
24	CG14086	DRSC10090	0.816	0.0448	
25	CG18343	DRSC06726	-1.49	0.0396	
26	Arp3 (Actin-related protein 3)	DRSC09669	-0.0119		
27	link	DRSC06368	-0.176	-0.363	
28	CR42546 (pseudo)	DRSC03711	-1.61	1.29	
29	Caf1-105 (Chromatin assembly factor 1, p105 subunit)	DRSC06209	1.44	1.1	
30	CG5339	DRSC04496	-0.718	-3.39	
31	SNRPG (Small nuclear ribonucleoprotein G)	DRSC20207	-1.92	-0.182	
32	PIG-C (Phosphatidylinositol glycan anchor biosynthesis class C)	DRSC08241	0.131	-1.16	
33	Liprin-alpha	DRSC02132	-0.0225	0.497	
34	CG30082	DRSC22945	0.291	1.08	
35	Gycalpha99B (Guanylyl cyclase alpha-subunit at 99B)	DRSC16690	-0.44	11.7	
36	brat (brain tumor)	DRSC03497	0.164	0.313	
37	CG17724	DRSC06687	1.27	-0.00418	
38	lectin-21Cb	DRSC00355	-0.232	-0.414	
39	rdgC (retinal degeneration C)	DRSC11387	-1.38	-0.114	
40	Atg4a (Autophagy-related 4a)	DRSC00656	-1.35	-0.82	
41	Cortactin	DRSC16612	-0.802	-0.111	
42	del (deadlock)	DRSC03170	1.56	-2.77	
43	Kap-alpha3 (karyopherin alpha3)	DRSC16976	0.655	0.452	
44	CG14132	DRSC10136	-0.0106	-0.583	
45	dpr13 (defective proboscis extension response 13)	DRSC06160	-0.881		
46	dpr13 (defective proboscis extension response 13)	DRSC06464	-2.05	-0.9	
47	CG3323	DRSC18303	0.262	-1.11	
48	CG17328	DRSC01927	0.155	0.422	-1.02
49	CG17328	DRSC22448	2.61	1.86	
50	tbc (trabuco)	DRSC20540	-0.595	1.5	
51	tbc (trabuco)	DRSC23084	0.0948	-0.842	
52	Osi15 (Osiris 15)	DRSC12178	-0.0583	-0.345	
53	HDAC1 (Histone deacetylase 1)	DRSC08696	-2.04	-1.09	
54	B-H2 (BarH2)	DRSC19335	-1.46	-4.98	
55	B-H2 (BarH2)	DRSC23012	0.688	0.864	
56	CG31068	DRSC13820	0.21	0.559	

8 consecutive records from above, quoted:
no.	target gene	DRSC id	droplet/nuclear area B-score, replicate 1	droplet/nuclear area B-score, replicate 2	droplet/nuclear area B-score, replicate 3
28	CR42546 (pseudo)	DRSC03711	-1.61	1.29	
29	Caf1-105 (Chromatin assembly factor 1, p105 subunit)	DRSC06209	1.44	1.1	
30	CG5339	DRSC04496	-0.718	-3.39	
31	SNRPG (Small nuclear ribonucleoprotein G)	DRSC20207	-1.92	-0.182	
32	PIG-C (Phosphatidylinositol glycan anchor biosynthesis class C)	DRSC08241	0.131	-1.16	
33	Liprin-alpha	DRSC02132	-0.0225	0.497	
34	CG30082	DRSC22945	0.291	1.08	
35	Gycalpha99B (Guanylyl cyclase alpha-subunit at 99B)	DRSC16690	-0.44	11.7	
